Source: the supplement of paper PMC10849652
This is one part of the list.

Sequences of proteins named here, by UniProt entry; tags and fusion partners are left off. A change or cut given only in a name is not applied to a line headed by its entry.
UniProt Q92734, whole entry, looked up: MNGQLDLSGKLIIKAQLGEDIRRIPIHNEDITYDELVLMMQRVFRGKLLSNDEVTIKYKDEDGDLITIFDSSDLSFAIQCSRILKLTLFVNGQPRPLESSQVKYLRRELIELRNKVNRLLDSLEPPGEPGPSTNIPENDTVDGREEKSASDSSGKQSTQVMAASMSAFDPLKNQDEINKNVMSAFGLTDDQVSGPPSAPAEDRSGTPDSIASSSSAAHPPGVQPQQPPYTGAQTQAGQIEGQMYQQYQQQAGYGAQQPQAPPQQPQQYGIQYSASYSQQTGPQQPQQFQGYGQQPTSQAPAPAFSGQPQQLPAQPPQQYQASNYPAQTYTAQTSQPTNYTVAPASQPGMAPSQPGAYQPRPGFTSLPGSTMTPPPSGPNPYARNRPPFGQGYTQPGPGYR
UniProt P02787, whole entry, looked up: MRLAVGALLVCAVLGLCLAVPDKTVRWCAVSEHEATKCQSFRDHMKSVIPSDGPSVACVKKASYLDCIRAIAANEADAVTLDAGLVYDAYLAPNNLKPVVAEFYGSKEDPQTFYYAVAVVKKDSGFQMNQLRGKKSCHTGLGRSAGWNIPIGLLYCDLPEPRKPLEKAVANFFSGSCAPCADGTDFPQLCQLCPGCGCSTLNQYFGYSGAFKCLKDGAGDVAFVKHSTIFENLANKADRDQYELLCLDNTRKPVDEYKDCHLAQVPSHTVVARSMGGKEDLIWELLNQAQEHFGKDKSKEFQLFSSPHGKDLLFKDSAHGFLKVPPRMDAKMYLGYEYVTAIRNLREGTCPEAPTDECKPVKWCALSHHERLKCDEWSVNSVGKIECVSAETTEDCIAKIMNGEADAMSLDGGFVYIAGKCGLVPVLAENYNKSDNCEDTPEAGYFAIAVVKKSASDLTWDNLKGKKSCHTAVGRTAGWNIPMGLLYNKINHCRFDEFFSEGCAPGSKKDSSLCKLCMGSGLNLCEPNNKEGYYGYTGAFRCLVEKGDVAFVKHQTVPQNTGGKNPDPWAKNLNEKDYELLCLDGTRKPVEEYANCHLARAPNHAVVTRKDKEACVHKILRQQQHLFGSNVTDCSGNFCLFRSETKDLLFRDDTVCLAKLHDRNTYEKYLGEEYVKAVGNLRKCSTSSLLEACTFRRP
UniProt P01033: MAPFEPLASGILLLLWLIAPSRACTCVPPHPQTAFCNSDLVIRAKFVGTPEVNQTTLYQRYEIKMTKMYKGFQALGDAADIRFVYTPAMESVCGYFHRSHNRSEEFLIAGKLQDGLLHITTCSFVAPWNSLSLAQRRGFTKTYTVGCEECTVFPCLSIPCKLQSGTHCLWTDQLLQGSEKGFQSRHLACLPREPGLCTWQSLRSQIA
UniProt Q8NFU7: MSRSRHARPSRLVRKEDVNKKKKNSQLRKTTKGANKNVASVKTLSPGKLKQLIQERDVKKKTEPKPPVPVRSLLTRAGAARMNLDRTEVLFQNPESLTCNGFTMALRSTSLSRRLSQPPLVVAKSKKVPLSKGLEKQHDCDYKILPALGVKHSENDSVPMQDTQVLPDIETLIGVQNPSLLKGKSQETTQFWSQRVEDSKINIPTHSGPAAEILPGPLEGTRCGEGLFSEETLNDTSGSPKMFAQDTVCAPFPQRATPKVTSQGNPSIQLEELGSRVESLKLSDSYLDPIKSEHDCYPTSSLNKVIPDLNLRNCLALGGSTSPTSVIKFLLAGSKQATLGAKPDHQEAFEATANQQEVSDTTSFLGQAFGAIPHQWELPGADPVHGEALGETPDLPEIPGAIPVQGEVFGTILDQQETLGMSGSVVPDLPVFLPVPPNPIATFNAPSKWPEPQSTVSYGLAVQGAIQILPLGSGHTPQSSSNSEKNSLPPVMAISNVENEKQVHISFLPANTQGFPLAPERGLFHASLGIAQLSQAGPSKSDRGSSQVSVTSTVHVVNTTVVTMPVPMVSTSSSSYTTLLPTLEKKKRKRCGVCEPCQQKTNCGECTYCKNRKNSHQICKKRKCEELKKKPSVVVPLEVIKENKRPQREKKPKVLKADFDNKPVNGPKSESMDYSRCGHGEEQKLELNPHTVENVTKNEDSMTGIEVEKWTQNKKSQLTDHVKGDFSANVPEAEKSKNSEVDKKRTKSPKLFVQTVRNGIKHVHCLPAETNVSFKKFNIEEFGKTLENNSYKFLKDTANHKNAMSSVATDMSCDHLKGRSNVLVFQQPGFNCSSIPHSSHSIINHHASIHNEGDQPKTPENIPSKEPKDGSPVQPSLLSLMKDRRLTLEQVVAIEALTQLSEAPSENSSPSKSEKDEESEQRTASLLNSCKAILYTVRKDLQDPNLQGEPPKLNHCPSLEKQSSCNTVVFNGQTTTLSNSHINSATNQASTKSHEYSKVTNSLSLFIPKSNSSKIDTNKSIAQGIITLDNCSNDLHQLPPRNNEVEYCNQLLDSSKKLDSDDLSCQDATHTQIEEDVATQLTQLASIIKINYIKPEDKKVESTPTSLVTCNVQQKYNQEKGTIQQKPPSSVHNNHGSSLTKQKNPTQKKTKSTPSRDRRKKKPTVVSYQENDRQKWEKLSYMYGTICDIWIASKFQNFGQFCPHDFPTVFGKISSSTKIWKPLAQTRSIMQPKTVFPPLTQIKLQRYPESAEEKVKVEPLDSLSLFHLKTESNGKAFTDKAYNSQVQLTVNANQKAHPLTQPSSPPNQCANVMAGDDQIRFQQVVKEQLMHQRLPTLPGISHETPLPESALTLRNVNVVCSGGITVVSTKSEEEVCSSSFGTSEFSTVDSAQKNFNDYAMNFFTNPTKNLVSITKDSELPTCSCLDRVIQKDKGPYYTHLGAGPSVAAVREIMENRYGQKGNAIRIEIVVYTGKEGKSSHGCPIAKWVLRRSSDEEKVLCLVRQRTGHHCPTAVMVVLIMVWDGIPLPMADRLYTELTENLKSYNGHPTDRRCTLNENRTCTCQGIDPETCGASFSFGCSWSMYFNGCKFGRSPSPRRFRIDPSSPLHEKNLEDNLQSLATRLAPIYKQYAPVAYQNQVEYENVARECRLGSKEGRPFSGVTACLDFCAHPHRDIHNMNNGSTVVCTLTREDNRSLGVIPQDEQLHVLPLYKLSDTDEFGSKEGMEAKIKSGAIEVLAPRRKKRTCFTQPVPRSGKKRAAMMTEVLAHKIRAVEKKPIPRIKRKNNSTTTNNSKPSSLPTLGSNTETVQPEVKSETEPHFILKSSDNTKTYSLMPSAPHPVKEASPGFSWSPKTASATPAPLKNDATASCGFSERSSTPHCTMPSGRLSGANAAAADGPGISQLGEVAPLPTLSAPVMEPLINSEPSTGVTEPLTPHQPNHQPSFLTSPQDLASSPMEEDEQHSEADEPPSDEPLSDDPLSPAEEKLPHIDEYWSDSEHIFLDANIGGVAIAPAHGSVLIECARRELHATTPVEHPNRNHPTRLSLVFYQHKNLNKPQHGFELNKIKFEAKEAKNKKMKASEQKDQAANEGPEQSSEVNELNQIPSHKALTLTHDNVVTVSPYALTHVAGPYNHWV
UniProt Q9Y584: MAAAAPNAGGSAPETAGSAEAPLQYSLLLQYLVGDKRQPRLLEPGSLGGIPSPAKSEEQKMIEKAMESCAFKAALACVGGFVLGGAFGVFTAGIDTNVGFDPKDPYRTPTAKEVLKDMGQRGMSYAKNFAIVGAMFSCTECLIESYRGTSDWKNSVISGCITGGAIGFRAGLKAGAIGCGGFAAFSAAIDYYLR
UniProt Q9Y5J9: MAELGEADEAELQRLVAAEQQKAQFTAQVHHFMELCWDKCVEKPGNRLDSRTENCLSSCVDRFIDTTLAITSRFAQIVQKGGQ
UniProt P01137, whole entry, looked up: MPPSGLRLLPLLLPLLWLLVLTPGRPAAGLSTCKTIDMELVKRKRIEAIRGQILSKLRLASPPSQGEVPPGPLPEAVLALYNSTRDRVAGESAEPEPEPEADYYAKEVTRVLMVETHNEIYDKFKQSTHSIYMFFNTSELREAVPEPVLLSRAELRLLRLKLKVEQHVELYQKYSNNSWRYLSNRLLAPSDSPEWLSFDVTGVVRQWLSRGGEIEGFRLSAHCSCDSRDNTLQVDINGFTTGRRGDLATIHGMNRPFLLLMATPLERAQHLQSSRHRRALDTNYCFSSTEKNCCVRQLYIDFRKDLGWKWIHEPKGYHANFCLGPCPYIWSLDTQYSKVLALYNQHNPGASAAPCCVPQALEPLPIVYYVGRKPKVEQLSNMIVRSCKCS

Assays:
Experiment in all cases: log2 fold change, soluble protein after heating vs DMSO (PISA); higher = thermal stabilisation; K562 cells, 10 uM, 30 min; active = over 0.2 and 3.5 SD of the protein, either way, in both replicates (recomputed)
[1] = compound: CC[C@@H]1C(=O)N(C)c2cnc(Nc3ccc(C(=O)NC4CCN(C)CC4)cc3OC)nc2N1C1CCCC1
Outline: (§1)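 Thermal stability values are relative to control samples and come from duplicates. They are expressed as log2 fold changes. For measurement, K562 cells (2×10^6 cells/mL) received 10 μM compound for 30 min, and aliquots were heated for 3 min over 48°C-58°C, pooled, and extracted at 4°C in PBS with 0.5% NP-40. Soluble protein, the supernatant after 21,000xg for 90 min, was quantified by TMTpro 16plex LC-MS/MS with equalised channel sums.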

volasertib = compound: CC[C@@H]1C(=O)N(C)c2cnc(Nc3ccc(C(=O)N[C@H]4CC[C@H](N5CCN(CC6CC6)CC5)CC4)cc3OC)nc2N1C(C)C [volasertib]
Outline: as §1

[2] = compound: CC[C@H](C)N1C=C(C2=C(C=C(C=C21)C3=CN=C(C=C3)N4CCNCC4)C(=O)NCC5=C(C=C(NC5=O)C)C)C
Outline: as §1

epoxomicin = compound: CC[C@H](C)[C@@H](C(=O)N[C@@H]([C@@H](C)O)C(=O)N[C@@H](CC(C)C)C(=O)[C@]1(CO1)C)NC(=O)[C@H]([C@@H](C)CC)N(C)C(=O)C [epoxomicin]
Outline: as §1

[3] = compound: CCn1c(C(=O)N(C2CC2)C2CC2)cc2c3c(ncn3C)c(Nc3cc(C)n(C)n3)nc21
Outline: as §1

[4] = compound: CCn1cc(-c2ccnc3[nH]c(-c4cccc(CN(C)C)c4)cc23)c(-c2ccc(NC(=O)N(C)C)cc2)n1
Outline: as §1

[5] = compound: CN(C)CC(=O)Nc1ccc2[nH]c(=O)c3ccccc3c2c1
Outline: as §1

rosiglitazone = compound: CN(CCOC1=CC=C(C=C1)C[C@H]2C(=O)NC(=O)S2)C3=CC=CC=N3 (racemic) [rosiglitazone]
Outline: as §1

[6] = compound: CN1C2=C(C3=C1C(=O)N(N=C3)CC4=CC(=CC=C4)N)SC(=C2)S(=O)C
Outline: as §1

[7] = compound: CN1CCC(CNc2ccc3ncc(-c4cccc(OC(F)(F)F)c4)n3n2)CC1
Outline: as §1

saracatinib = compound: CN1CCN(CCOc2cc(OC3CCOCC3)c3c(Nc4c(Cl)ccc5c4OCO5)ncnc3c2)CC1 [saracatinib]
Outline: as §1

sotrastaurin = compound: CN1CCN(c2nc(C3=C(c4c[nH]c5ccccc45)C(=O)NC3=O)c3ccccc3n2)CC1 [sotrastaurin]
Outline: as §1

alvocidib = compound: CN1CC[C@H](c2c(O)cc(O)c3c(=O)cc(-c4ccccc4Cl)oc23)[C@H](O)C1 [alvocidib]
Outline: as §1

Tubastatin A = compound: CN1CCc2c(c3ccccc3n2Cc2ccc(C(=O)NO)cc2)C1 [Tubastatin A]
Outline: as §1

[8] = compound: CNC(=O)C1=CC=CC=C1NC2=NC(=NC=C2Cl)NC3=C(C=C(C=C3)N4CCOCC4)OC
Outline: as §1

defactinib = compound: CNC(=O)c1ccc(Nc2ncc(C(F)(F)F)c(NCc3nccnc3N(C)S(C)(=O)=O)n2)cc1 [defactinib]
Outline: as §1

rucaparib = compound: CNCc1ccc(-c2[nH]c3cc(F)cc4c3c2CCNC4=O)cc1 [rucaparib]
Outline: as §1

[9] = compound: CNc1nc(-c2ccc3c(N)n[nH]c3c2)cc(N2C[C@@H](C(=O)NC3CCCCC3)CC[C@H]2C)n1
Outline: as §1

encorafenib = compound: COC(=O)N[C@@H](C)CNc1nccc(-c2cn(C(C)C)nc2-c2cc(Cl)cc(NS(C)(=O)=O)c2F)n1 [encorafenib]
Outline: as §1

[10] = compound: COC(=O)[C@H](CCSC)NC(=O)C1=C(C=C(C=C1)NC[C@H](CS)N)C2=CC=CC=C2
Outline: as §1

Measured: log2 fold change

TFG (UniProt Q92734)
inactive: [1] -0.027 | volasertib 0.082 | [2] -0.011 | epoxomicin 0.023 | [3] 0.022 | [4] -0.006 | [5] -0.017 | rosiglitazone -0.012 | [6] -0.028 | [7] -0.054 | saracatinib 0.023 | sotrastaurin 0.012 | alvocidib 0.016 | Tubastatin A -0.031 | [8] -0.009 | defactinib -0.007 | rucaparib -0.001 | [9] -0.01 | encorafenib -0.036 | [10] 0.036

TF (UniProt P02787)
inactive: [1] -0.04 | volasertib 0.199 | [2] 0.003 | epoxomicin -0.536 | [3] -0.074 | [4] -0.064 | [5] -0.009 | rosiglitazone -0.086 | [6] 0.159 | [7] 0.09 | saracatinib 0.418 | sotrastaurin 0.173 | alvocidib 0.072 | Tubastatin A -0.099 | [8] 0.15 | defactinib 0.003 | rucaparib -0.144 | [9] 0.089 | encorafenib 0.111 | [10] 0.133

TIMP1 (UniProt P01033)
inactive: [1] 0.046 | volasertib 0.15 | [2] -0.02 | epoxomicin -0.074 | [3] 0.034 | [4] 0.072 | [5] -0.084 | rosiglitazone -0.085 | [6] -0.032 | [7] 0.182 | saracatinib 0.05 | sotrastaurin 0.108 | alvocidib 0.087 | Tubastatin A 0.005 | [8] 0.051 | defactinib -0.063 | rucaparib -0.01 | [9] -0.024 | encorafenib -0.029 | [10] 0.025

TET1 (UniProt Q8NFU7)
inactive: [1] 0.024 | volasertib -0.437 | [2] -0.489 | epoxomicin -0.069 | [3] -0.195 | [4] -0.031 | [5] 0.019 | rosiglitazone 0.071 | [6] -0.112 | [7] 0.171 | saracatinib -0.19 | sotrastaurin -0.033 | alvocidib 0.043 | Tubastatin A 0.308 | [8] -0.257 | defactinib -0.036 | rucaparib -0.01 | [9] -0.054 | encorafenib -0.116 | [10] -0.068

TIMM22 (UniProt Q9Y584)
inactive: [1] -0.024 | volasertib 0.079 | [2] -0.04 | epoxomicin 0.12 | [3] 0.033 | [4] -0.056 | [5] 0.19 | rosiglitazone 0.046 | [6] -0.101 | [7] 0.2 | saracatinib 0.254 | sotrastaurin -0.038 | alvocidib -0.157 | Tubastatin A -0.021 | [8] -0.042 | defactinib -0.089 | rucaparib 0.182 | [9] 0.085 | encorafenib -0.075 | [10] -0.14

TIMM8B (UniProt Q9Y5J9)
inactive: [1] 0.004 | volasertib -0.182 | [2] -0.068 | epoxomicin 0.527 | [3] 0.073 | [4] -0.115 | [5] 0.035 | rosiglitazone -0.024 | [6] -0.178 | [7] 0.167 | saracatinib -0.025 | sotrastaurin 0.142 | alvocidib -0.099 | Tubastatin A 0.015 | [8] 0.064 | defactinib -0.232 | rucaparib -0.035 | [9] -0.083 | encorafenib -0.056 | [10] 0.079

TGFB1 (UniProt P01137)
inactive: [1] 0.058 | volasertib 0.015 | [2] -0.014 | epoxomicin -0.004 | [3] 0.024 | [4] 0.028 | [5] 0 | rosiglitazone -0.003 | [6] -0.026 | [7] 0.106 | saracatinib -0.001 | sotrastaurin 0.053 | alvocidib 0.02 | Tubastatin A 0.003 | [8] 0.008 | defactinib -0.022 | rucaparib -0.006 | [9] -0.007 | encorafenib 0.004 | [10] -0.03
